# Primary screen of a compound library

Leishmania in macrophages: 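Cell assay of Leishmania donovani living inside macrophages; the read-out is not stated. Compounds at 30 µM. Direction is inferred from retests: higher values go with stronger inhibition. Size under these conditions: about 69,000 compounds, about 1,000 of them at 50% or above in at least one test.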
Toxoplasma: 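Assay of Toxoplasma gondii numbers, read through their beta-galactosidase reporter with a colour substrate. Concentration: 10 µM. The record gives no direction; the compounds picked for IC50 retests had high values, so higher reads as fewer parasites. Of about 67,000 compounds tested this way, about 260 (0.38%) reached 50% or more in at least one test.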

Each number is a percent effect as filed.
How 0% and 100% were set is not recorded. Most values in the screen are low, and negative values occur.
The compounds are a random part of those screened.
Two or more numbers in one place are separate tests of the same structure; such repeats can differ widely.

CN(Cc1ccc(Br)c2cccnc12)S(C)(=O)=O read Leishmania in macrophages: 20.74%; Toxoplasma: 6.84%. For O=C(N1CCOCC1)N1CCc2ncnc(NC3CCC3)c2CC1.O=C(O)C(F)(F)F the result was Leishmania in macrophages: 14.85%; Toxoplasma: -29.23%. O=C(O)C(F)(F)F.[H][C@@]12CCN(Cc3ccsc3)C[C@@]1([H])[C@H](C(=O)NCC1CC1)CCO2 read Leishmania in macrophages: 1.045%; Toxoplasma: -24.84%. CN(C)c1nc2c(c(N3CCc4ccccc4C3)n1)CCNC2 read Leishmania in macrophages: 27.65%; Toxoplasma: -6.492%. Result for CCCN(CCC)CCNc1c(-c2ccccc2)c(=O)c1=O was Leishmania in macrophages: 12.17%; Toxoplasma: -9.883%. Result for CN(CC(=O)N1CCCC1)Cc1nc2c(cnn2C)c(=O)[nH]1 was Leishmania in macrophages: 7.347%; Toxoplasma: 12.48%. CCOc1cncc(N2CCOCC2)n1 read Leishmania in macrophages: 5.328%; Toxoplasma: 0.2273%. CCOCCCNc1ncc(-c2onc(C)c2C)c(-c2ccco2)n1 read Leishmania in macrophages: 31.25%; Toxoplasma: -9.084%.

With Cc1nc(C)n(CC2CCCN(CCOc3cccc(C#N)c3)C2)n1 (centres undefined) the screen gave Leishmania in macrophages: 10.98%; Toxoplasma: -0.2872%. COCc1noc(CC2CN(c3ncnc4sc(C)c(C)c34)CCO2)n1 (centres undefined) gave Leishmania in macrophages: 17.09%; Toxoplasma: -21.05%. Result for COC(=O)C(C)(C)C(C)(C)NC(=O)Nc1nnc(-c2ccccn2)s1 was Leishmania in macrophages: 2.712%; Toxoplasma: -64.49%. COc1cccc(C(=O)N2CCC3(CCC(=O)N(C(C)C)C3)CC2)c1C gave Leishmania in macrophages: 15.94%; Toxoplasma: -4.366%. Result for COc1cc(CN2CCCCCC2c2cccs2)cc(OC)c1OC (centres undefined) was Leishmania in macrophages: 42.62%; Toxoplasma: 4.657%. For O=C(c1cc2c(s1)CCC2)N1CCCC(c2cnccn2)C1 (centres undefined) the result was Leishmania in macrophages: -12.29%; Toxoplasma: 9.044%. Result for OCc1cc2ccccc2nc1N1CCCC1 was Leishmania in macrophages: 13.88%; Toxoplasma: -1.598%. With O=C(O)C(F)(F)F.O=C(O)C(F)(F)F.O=C(O)C(F)(F)F.[H][C@@]12CN(Cc3ccccn3)C[C@]1([H])OCCN2c1ncccn1 the screen gave Leishmania in macrophages: -0.09782%; Toxoplasma: 0.8319%.

[H][C@]12CC[C@]([H])(CN(Cc3ccc4ccccc4n3)C1)N(CCOC)C2 gave Leishmania in macrophages: 28.98%; Toxoplasma: 3.212%. Cl.NC(CC1CCCC1)c1ccccc1 (centres undefined) gave Leishmania in macrophages: 14.4%; Toxoplasma: -47.66%. Result for Cc1nc(CNC(=O)NCC(O)c2ccccc2)cs1 (centres undefined) was Leishmania in macrophages: -16.2%; Toxoplasma: 2.01%. For CCC(CC)NC(=O)Cn1nc(C)nc1-c1ccccc1 the result was Leishmania in macrophages: 7.399%; Toxoplasma: 4.767%. For CCN(CC)C(=O)CN(C)C(=O)c1cc(-c2cccc(Cl)c2)no1 the result was Leishmania in macrophages: 8.005%; Toxoplasma: -2.183%. CC(C)c1nccn1-c1cccc(C2CCN(C)CC2)n1 gave Leishmania in macrophages: 45.47%; Toxoplasma: 15.95%. CN(C)c1ncc(C2Nc3cc(Cl)ccc3C3=NCCCN32)cn1.Cl (centres undefined) read Leishmania in macrophages: 20.78%; Toxoplasma: 36%. CC(C)(C)c1cn2nc(N3CCCC(Cn4cncn4)C3)sc2n1 (centres undefined) gave Leishmania in macrophages: -0.5455%; Toxoplasma: 2.245%.

CCOCC(=O)NCC1(NC(C)c2ccccc2)CCOCC1 (centres undefined) read Leishmania in macrophages: 24.23%; Toxoplasma: -2.075%. For CC(C)C(=O)N1CCCC(Cc2ncccn2)C1 (centres undefined) the result was Leishmania in macrophages: -15.78%; Toxoplasma: -8.065%. O=C(NC1CC1)C1CCc2nnc(C3CC3)n21 (centres undefined) gave Leishmania in macrophages: 21.02%; Toxoplasma: -0.6823%. CN(C)c1cnn(CC(=O)N2CCCCCC2)c(=O)c1 gave Leishmania in macrophages: 37.74%; Toxoplasma: 4.299%. Cc1cc(-c2cnc(N3CCNC(=O)C3)nc2-c2ccncc2)on1 gave Leishmania in macrophages: -16.97%; Toxoplasma: 4.821%. For Cc1ccccc1C(=O)NCc1ccc(N2CCNC(=O)C2)c(F)c1 the result was Leishmania in macrophages: 38.06%; Toxoplasma: 4.616%. COC(=O)C1CN(Cc2nc(C(C)(C)C)cs2)C[C@@H](C)O1 (some centres undefined) gave Leishmania in macrophages: 9.683%; Toxoplasma: 2.727%. O=C(NCCCn1ccccc1=O)c1cnc(-c2ccsc2)s1 gave Leishmania in macrophages: 11.24%; Toxoplasma: -0.4651%.

With CN(CC(=O)N1CCN(c2ncccn2)CC1)c1ccc(Cl)cn1 the screen gave Leishmania in macrophages: 26.44%; Toxoplasma: -2.424%. With CCCC(=O)N(C)CC(=O)Nc1ccc(Br)cn1 the screen gave Leishmania in macrophages: 24.96%; Toxoplasma: 5.715%. Cc1ccnc(NC(=O)c2cccc(OCc3nnnn3C)c2)c1 read Leishmania in macrophages: 14.35%; Toxoplasma: -3.401%. COc1ccc(CN(Cc2ccccn2)Cc2cncn2C)cc1.O=C(O)CC(O)(CC(=O)O)C(=O)O read Leishmania in macrophages: -2.861%; Toxoplasma: -2.133%. [H][C@]12CC[C@]([H])(CN(Cc3cscn3)C1)N(C(=O)c1cccc(OC)c1)C2 read Leishmania in macrophages: 5.047%; Toxoplasma: -11.34%. For CCS(=O)(=O)Nc1ccc2c(c1)OCC(C)(C)C(=O)N2C the result was Leishmania in macrophages: 2.243%; Toxoplasma: 6.786%. CN(CC1(CO)CCC1)C(=O)C1CCC(=O)N(Cc2ccc(Cl)cc2)C1 (centres undefined) read Leishmania in macrophages: 6.028%; Toxoplasma: -3.55%. CN(C)CCN(Cc1ccccn1)C(=O)Nc1cccc(F)c1 gave Leishmania in macrophages: 16.97%; Toxoplasma: 1.923%.

For CC(=O)c1cc(CC(=O)NCc2cccc(F)c2F)cs1 the result was Leishmania in macrophages: 9.808%; Toxoplasma: -1.724%. For O=C(O)C(F)(F)F.O=C(O)C(F)(F)F.O=C1N(c2cncnc2)CCC12CCCN(Cc1ccccn1)C2 (centres undefined) the result was Leishmania in macrophages: 6.412%; Toxoplasma: 15.13%. For CCn1ncnc1C(C)NC(=O)C1CCN(C(=O)COC)CC1 (centres undefined) the result was Leishmania in macrophages: 54.19%; Toxoplasma: 4.2%. Cl.NC(=O)c1ccc(C2CCCNC2)nc1 (centres undefined) read Leishmania in macrophages: 16.84%; Toxoplasma: -2.588%. Result for CC(NC(=O)C1CC1)c1cc(O)nc(-c2cccnc2)n1 (centres undefined) was Leishmania in macrophages: -7.143%; Toxoplasma: -3.376%. CS(=O)(=O)c1snnc1C1CCN(Cc2cccc(O)c2)CC1 gave Leishmania in macrophages: 19.5% & 22.85%; Toxoplasma: -8.09%.

The first 3 entries again:

Compound,Leishmania in macrophages,Toxoplasma
CN(Cc1ccc(Br)c2cccnc12)S(C)(=O)=O,20.74,6.84
O=C(N1CCOCC1)N1CCc2ncnc(NC3CCC3)c2CC1.O=C(O)C(F)(F)F,14.85,-29.23
O=C(O)C(F)(F)F.[H][C@@]12CCN(Cc3ccsc3)C[C@@]1([H])[C@H](C(=O)NCC1CC1)CCO2,1.045,-24.84

Measurements from “University of Dundee, Small-Polar-MMV Screening Library” (2021), ChEMBL document CHEMBL3988442.